According to PubChem BioAssay (EPA / NIEHS):
Several values for one entry are separate records, joined by “and”; a condition that tells them apart may be missing. Equal values may be shown once. The shares of active, inactive and inconclusive entries below differ from those in the screen. A potency beside an inconclusive call is a rough fit, not a confirmed value. Activity calls are given as the source filed them. The calls were made as follows: active = hit-call score of the fitted dose curve at least 0.9, where 1 is the maximum; inconclusive = response in the unintended direction; inactive = score below 0.9.

Protein sequences, listed by entry. Tags and fused reporters are not part of them. Lines headed by an entry give the natural chain unless they say otherwise; changes in a name come on top.
UniProt Q02763: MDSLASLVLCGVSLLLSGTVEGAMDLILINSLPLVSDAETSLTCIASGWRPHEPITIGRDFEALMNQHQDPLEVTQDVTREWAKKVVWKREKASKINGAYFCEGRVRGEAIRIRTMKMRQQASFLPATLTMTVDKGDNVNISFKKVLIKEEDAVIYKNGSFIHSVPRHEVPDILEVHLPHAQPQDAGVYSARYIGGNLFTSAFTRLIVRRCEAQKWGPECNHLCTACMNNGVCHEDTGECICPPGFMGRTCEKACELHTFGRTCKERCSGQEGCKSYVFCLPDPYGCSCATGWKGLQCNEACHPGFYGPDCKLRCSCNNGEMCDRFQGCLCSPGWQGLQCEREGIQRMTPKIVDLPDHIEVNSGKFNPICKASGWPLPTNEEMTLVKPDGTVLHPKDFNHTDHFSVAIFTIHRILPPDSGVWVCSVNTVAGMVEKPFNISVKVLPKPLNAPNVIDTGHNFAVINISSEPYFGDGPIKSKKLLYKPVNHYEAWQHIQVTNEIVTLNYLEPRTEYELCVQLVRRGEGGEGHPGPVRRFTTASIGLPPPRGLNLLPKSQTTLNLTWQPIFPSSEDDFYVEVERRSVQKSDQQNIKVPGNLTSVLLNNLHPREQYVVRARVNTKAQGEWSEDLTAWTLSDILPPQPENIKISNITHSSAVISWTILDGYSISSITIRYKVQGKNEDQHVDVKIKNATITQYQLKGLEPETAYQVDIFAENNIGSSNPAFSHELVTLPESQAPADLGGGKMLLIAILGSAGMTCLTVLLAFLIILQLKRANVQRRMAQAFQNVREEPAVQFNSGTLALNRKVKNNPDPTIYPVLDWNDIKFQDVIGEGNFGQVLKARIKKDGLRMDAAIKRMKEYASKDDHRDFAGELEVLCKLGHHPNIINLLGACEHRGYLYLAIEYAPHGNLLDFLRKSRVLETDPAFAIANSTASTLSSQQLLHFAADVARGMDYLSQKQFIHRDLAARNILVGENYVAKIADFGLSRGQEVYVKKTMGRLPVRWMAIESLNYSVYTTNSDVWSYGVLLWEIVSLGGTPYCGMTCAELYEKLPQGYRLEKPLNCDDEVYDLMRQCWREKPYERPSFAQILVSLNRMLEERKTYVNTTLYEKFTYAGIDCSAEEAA
UniProt P17948, whole entry, looked up: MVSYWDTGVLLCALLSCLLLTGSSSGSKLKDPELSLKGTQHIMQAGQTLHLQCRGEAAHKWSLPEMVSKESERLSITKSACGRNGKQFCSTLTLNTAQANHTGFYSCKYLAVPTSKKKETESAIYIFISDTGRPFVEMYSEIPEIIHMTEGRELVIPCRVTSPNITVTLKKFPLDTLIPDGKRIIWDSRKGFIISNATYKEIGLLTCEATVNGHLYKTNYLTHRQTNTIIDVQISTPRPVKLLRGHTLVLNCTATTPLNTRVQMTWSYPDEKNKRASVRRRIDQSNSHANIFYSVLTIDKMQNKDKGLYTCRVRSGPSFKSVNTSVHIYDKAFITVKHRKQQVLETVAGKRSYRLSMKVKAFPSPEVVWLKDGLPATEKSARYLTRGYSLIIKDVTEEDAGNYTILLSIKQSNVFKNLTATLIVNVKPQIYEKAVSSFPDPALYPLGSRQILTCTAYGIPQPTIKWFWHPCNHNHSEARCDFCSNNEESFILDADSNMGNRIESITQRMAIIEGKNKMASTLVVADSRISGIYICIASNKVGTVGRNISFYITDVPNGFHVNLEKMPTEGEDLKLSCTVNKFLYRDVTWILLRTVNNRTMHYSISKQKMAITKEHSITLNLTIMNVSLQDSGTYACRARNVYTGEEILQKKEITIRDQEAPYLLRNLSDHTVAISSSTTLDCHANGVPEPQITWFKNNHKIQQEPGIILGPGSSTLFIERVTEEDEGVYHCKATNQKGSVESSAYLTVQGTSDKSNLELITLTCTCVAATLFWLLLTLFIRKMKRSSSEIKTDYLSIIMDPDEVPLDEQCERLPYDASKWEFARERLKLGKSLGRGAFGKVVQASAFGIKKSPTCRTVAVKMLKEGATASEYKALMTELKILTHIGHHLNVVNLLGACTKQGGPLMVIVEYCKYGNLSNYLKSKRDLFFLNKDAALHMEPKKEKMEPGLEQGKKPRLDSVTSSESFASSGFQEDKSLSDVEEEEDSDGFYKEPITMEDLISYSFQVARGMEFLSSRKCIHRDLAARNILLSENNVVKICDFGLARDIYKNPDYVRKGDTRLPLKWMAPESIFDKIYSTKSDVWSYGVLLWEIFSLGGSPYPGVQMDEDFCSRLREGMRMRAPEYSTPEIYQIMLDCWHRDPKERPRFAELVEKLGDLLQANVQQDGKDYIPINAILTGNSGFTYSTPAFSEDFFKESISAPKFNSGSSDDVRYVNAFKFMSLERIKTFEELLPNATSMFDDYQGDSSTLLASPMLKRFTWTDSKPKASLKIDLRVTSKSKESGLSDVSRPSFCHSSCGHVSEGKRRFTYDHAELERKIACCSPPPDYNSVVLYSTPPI
UniProt P35916, whole entry, looked up: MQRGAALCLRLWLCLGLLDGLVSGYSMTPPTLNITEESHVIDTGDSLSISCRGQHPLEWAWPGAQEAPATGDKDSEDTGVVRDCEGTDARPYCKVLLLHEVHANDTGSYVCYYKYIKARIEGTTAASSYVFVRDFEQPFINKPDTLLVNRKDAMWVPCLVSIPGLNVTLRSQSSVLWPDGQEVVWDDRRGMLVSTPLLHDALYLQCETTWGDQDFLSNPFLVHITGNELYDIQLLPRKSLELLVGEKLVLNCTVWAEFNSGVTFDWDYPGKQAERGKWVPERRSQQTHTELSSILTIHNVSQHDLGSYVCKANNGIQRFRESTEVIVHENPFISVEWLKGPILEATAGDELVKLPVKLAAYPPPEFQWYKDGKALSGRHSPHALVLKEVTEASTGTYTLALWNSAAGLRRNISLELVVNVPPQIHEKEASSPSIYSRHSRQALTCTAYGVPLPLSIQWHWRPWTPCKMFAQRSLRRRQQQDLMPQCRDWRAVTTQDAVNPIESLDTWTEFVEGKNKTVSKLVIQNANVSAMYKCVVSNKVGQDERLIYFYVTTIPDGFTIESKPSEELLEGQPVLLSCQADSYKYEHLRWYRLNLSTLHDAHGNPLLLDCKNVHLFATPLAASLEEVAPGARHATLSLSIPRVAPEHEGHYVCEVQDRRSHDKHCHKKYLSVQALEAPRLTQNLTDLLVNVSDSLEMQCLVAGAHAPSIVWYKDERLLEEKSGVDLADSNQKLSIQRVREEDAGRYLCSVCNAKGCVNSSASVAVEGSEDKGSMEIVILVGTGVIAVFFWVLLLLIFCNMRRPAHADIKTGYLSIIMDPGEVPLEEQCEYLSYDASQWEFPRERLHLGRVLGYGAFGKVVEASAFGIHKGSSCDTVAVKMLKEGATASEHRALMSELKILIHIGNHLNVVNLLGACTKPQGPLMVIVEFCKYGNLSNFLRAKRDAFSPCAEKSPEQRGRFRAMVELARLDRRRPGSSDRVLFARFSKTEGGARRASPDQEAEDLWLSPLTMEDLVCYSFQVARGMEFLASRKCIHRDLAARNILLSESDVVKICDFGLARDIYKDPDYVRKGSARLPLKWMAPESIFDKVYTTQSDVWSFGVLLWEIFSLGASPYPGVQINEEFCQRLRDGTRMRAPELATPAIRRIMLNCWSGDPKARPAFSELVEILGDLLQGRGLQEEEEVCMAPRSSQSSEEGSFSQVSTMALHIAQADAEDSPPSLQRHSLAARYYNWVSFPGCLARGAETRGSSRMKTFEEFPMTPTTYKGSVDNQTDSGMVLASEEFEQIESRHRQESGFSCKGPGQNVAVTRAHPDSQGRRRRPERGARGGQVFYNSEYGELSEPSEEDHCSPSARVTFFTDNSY
UniProt P35968, whole entry, looked up: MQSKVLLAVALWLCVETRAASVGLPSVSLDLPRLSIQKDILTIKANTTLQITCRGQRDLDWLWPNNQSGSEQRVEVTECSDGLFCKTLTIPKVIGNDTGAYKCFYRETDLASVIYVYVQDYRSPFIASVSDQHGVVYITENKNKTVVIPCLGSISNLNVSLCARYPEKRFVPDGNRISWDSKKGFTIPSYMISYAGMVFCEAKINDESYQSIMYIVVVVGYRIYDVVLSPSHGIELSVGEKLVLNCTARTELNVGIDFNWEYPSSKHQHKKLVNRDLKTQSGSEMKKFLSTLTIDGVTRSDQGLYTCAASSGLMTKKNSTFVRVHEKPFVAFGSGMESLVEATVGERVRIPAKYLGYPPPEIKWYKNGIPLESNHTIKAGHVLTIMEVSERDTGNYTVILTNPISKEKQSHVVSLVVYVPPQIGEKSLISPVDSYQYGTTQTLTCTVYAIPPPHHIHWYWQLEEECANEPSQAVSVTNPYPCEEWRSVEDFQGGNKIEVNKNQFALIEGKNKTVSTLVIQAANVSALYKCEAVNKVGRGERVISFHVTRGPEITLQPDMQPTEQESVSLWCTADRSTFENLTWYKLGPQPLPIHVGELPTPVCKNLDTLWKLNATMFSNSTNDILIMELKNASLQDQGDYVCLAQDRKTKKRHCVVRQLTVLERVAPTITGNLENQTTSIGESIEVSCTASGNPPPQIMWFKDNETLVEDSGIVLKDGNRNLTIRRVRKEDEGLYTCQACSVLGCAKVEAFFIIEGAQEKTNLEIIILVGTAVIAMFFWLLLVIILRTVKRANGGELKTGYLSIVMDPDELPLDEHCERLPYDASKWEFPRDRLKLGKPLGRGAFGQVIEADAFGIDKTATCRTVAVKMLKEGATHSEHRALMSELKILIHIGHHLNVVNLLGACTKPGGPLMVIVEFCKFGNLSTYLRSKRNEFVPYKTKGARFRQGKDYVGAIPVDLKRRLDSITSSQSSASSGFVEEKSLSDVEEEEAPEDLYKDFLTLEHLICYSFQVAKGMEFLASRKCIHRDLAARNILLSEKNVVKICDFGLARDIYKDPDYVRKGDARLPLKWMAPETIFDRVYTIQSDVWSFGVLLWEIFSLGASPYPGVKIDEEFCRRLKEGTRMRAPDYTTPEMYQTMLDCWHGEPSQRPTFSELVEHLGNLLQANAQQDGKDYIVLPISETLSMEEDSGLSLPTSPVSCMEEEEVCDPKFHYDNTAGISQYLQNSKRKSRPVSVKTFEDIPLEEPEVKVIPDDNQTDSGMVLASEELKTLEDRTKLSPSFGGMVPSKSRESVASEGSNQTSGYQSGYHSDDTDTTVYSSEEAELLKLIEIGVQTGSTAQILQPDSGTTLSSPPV

These compounds were tested against human Tyrosine Protein Kinase Receptor Tie-2 (Tie2), TEK (gene 7010) (UniProt Q02763) (assay: NVS_ENZ_hTie2: NovaScreen (NVS) Enzymatic Assay for human Tyrosine Protein Kinase Receptor Tie-2 (Tie2) (AID 2283225)).
How it was run: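 Substrate and product were separated by mobility shift and detected by fluorescence after a 1-hour reaction with recombinant Tie2. Chemicals passing a 25 uM single-point screen were titrated to a maximum of 50 uM. Results were normalized to DMSO baseline.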

SMILES | AC50
CCNP(=S)(OC)O/C(C)=C/C(=O)OC(C)C (stereo unspecified) | inconclusive: 25 µM
COC(=O)C(C)Oc1ccc(Oc2ccc(Cl)cc2Cl)cc1 (stereo unspecified) | inconclusive: 560 nM and inconclusive: 63.6 nM
C[C@]12C=CC3=C4CCC(=O)C=C4CC[C@H]3[C@@H]1CC[C@@H]2O | inconclusive: 25 µM
O=C(O)COc1nc(Cl)c(Cl)cc1Cl | inconclusive: 25 µM
N#CCCC(Br)(C#N)CBr (stereo unspecified) | inconclusive: 25 µM
CC(C)(C)C(O)/C(=C\c1ccc(Cl)cc1Cl)n1cncn1 (stereo unspecified) | inconclusive: 0.407 µM
CC[C@H](C)[C@H]1O[C@]2(C=C[C@@H]1C)C[C@@H]1C[C@@H](C/C=C(\C)[C@@H](O[C@H]3C[C@H](OC)[C@@H](O[C@H]4C[C@H](OC)[C@@H](O)[C@H](C)O4)[C@H](C)O3)[C@@H](C)/C=C/C=C3\CO[C@@H]4[C@H](O)C(C)=C[C@@H](C(=O)O1)[C@]34O)O2 (tested in a mixture with another compound) | active: 36.1 µM

Each compound was assayed against human Vascular Endothelial Growth Factor Receptor 1 (VEGFR1), FLT1 (gene 2321) (UniProt P17948) (assay: NVS_ENZ_hVEGFR1: NovaScreen (NVS) Enzymatic Assay for human Vascular Endothelial Growth Factor Receptor 1 (VEGFR1) (AID 2283226)).
How it was run: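 Kinase activity of recombinant human VEGFR1 was read by fluorescence after electrophoretic separation of product from substrate, 1 h post-dosing; initial duplicate single-point testing at 25 uM, followed by concentration-series follow-up, with DMSO as baseline.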

SMILES | AC50 | outcome
Cc1c(F)c(F)c(COC(=O)C2C(/C=C(\Cl)C(F)(F)F)C2(C)C)c(F)c1F (stereo unspecified) | inconclusive: 25 µM | –
C=C(C)C(=O)OCC(CC)CCCC (stereo unspecified) | – | inactive
O=S(=O)(c1ccc(Cl)cc1)c1cc(Cl)c(Cl)cc1Cl | inconclusive: 6.47 µM | –
ClCCBr | inconclusive: 6.74 µM | –
O=[N+]([O-])c1cccc2ccccc12 | inconclusive: 9.27 µM | –
C=CCOC(=O)C(C)(C)OC(=O)c1cc(-n2c(=O)cc(C(F)(F)F)n(C)c2=O)ccc1Cl | – | inactive
O=C(O)CCCc1ccc(N(CCCl)CCCl)cc1 | inconclusive: 7.81 µM | –
O=c1c2ccccc2c(=O)c2c1cc(Cl)c1[nH]c3c([nH]c12)c(Cl)cc1c(=O)c2ccccc2c(=O)c13 | active: 0.732 µM | –
BrCCCCBr | inconclusive: 29.5 µM | –
O=C(Cl)OCCOCCOC(=O)Cl | inconclusive: 0.892 µM | –
CCOC(=O)CCN(SN(C)C(=O)Oc1cccc2c1OC(C)(C)C2)C(C)C | inconclusive: 0.00229 µM | –
Cc1ccc2c(c1N)C(=O)c1ccccc1C2=O | active: 25 µM | –
C=CC(=O)NC(C)(C)CC(C)=O | inconclusive: 7.51 µM | –
CC(C)c1ccc(CO)cc1 | inconclusive: 0.657 µM | –
ClC1=C(Cl)[C@]2(Cl)[C@@H]3[C@@H]4C[C@@H]([C@H]5O[C@@H]45)[C@@H]3[C@@]1(Cl)C2(Cl)Cl | – | inactive
Oc1ccc(Cc2ccc(O)cc2)cc1 | inconclusive: 0.532 µM | –
CC(C)(C)c1ccc(O)cc1 | – | inactive
CC[N+](CC)(CC)CC | inconclusive: 4.35 µM | –
c1ccc(-c2cccc(-c3ccccc3)c2)cc1 | inconclusive: 25 µM | –
O=c1oc2ccccc2c(O)c1C(CC(O)c1ccc(-c2ccc(Br)cc2)cc1)c1ccccc1 (stereo unspecified) | active: 16.9 µM | –

Rewritten in markdown: entries from further up.

| SMILES | AC50 | outcome |
| --- | --- | --- |
| CC[N+](CC)(CC)CC | inconclusive: 4.35 µM | – |
| c1ccc(-c2cccc(-c3ccccc3)c2)cc1 | inconclusive: 25 µM | – |

These compounds were tested against human Vascular Endothelial Growth Factor Receptor 3 (VEGFR3), FLT4 (gene 2324) (UniProt P35916) (assay: NVS_ENZ_hVEGFR3: NovaScreen (NVS) Enzymatic Assay for human Vascular Endothelial Growth Factor Receptor 3 (VEGFR3) (AID 2283229)).
How it was run: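 Chemicals first run in duplicate at 25 uM, with actives re-tested in concentration series to a top of 50 uM. Recombinant VEGFR3 activity measured after 1 h via fluorescence with mobility-shift product separation; inhibition fitted relative to DMSO.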

SMILES | AC50 | outcome
CCCCOC(=O)[C@@H](C)Oc1ccc(Oc2ccc(C#N)cc2F)cc1 | inconclusive: 0.0754 µM | –
O=CNC(N1CCN(C(NC=O)C(Cl)(Cl)Cl)CC1)C(Cl)(Cl)Cl (stereo unspecified) | inconclusive: 4.96 µM | –
Clc1ccc(C(c2ccccc2Cl)C(Cl)(Cl)Cl)cc1 (stereo unspecified) | – | inactive

The compounds below were run against human Vascular Endothelial Growth Factor Receptor 2 (VEGFR2), KDR (gene 3791) (UniProt P35968) (assay: NVS_ENZ_hVEGFR2: NovaScreen (NVS) Enzymatic Assay for human Vascular Endothelial Growth Factor Receptor 2 (VEGFR2) (AID 2283230)).
How it was run: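 Cell-free recombinant VEGFR2 kinase, fluorescent substrate with electrophoretic mobility-shift separation; read 1 h after dosing. Screened at 25 uM in duplicate, hits to concentration-response up to 50 uM; loss-of-signal versus DMSO.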

SMILES | AC50 | outcome
CCCCCCCCCCCCCN1CC(C)OC(C)C1 (stereo unspecified) | inconclusive: 46.5 µM | –
N#Cc1c(Cl)c(Cl)c(Cl)c(C#N)c1Cl | – | inactive
ClC1=C(Cl)C2(Cl)C3C(Cl)C=CC3C1(Cl)C2(Cl)Cl (stereo unspecified) | inconclusive: 25 µM | –
O=C1C2(Cl)C3(Cl)C4(Cl)C(Cl)(Cl)C5(Cl)C3(Cl)C1(Cl)C5(Cl)C24Cl (stereo unspecified) | – | inactive
ClC1=C(Cl)[C@]2(Cl)[C@@H]3[C@@H](Cl)[C@H]4O[C@H]4[C@@H]3C1(Cl)C2(Cl)Cl | inconclusive: 1.48 µM | –
O=c1ssc(Cl)c1Cl | – | inactive
